The other results are listed elsewhere or left out.
How the values were obtained:
Experiment in all cases: log2 fold change, soluble protein after heating vs DMSO (PISA); higher = thermal stabilisation; K562 cells, 10 uM, 30 min; active = over 0.2 and 3.5 SD of the protein, either way, in both replicates (recomputed)
[1] = compound: CC1=C(C=C(C=C1)NC(=O)C2=CC(=CC=C2)N(C)C)NC(=O)C3=CC=C(C=C3)O
Summary of the method: (§1)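 Aliquots of K562 cells (2×10^6 cells/mL) treated with 10 μM compound for 30 min were heated for 3 min over 48°C-58°C. After pooling and extraction in PBS with 0.5% NP-40 at 4°C, soluble protein from a 21,000xg, 90 min spin was quantified by TMTpro 16plex LC-MS/MS with channel sums equalised. Thermal stability is expressed against control samples, from duplicates, as a log2 fold change.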

Protein sequences, listed by entry. Tags and fused reporters are not part of them. Lines headed by an entry give the natural chain unless they say otherwise; changes in a name come on top.
UniProt Q8WUY3: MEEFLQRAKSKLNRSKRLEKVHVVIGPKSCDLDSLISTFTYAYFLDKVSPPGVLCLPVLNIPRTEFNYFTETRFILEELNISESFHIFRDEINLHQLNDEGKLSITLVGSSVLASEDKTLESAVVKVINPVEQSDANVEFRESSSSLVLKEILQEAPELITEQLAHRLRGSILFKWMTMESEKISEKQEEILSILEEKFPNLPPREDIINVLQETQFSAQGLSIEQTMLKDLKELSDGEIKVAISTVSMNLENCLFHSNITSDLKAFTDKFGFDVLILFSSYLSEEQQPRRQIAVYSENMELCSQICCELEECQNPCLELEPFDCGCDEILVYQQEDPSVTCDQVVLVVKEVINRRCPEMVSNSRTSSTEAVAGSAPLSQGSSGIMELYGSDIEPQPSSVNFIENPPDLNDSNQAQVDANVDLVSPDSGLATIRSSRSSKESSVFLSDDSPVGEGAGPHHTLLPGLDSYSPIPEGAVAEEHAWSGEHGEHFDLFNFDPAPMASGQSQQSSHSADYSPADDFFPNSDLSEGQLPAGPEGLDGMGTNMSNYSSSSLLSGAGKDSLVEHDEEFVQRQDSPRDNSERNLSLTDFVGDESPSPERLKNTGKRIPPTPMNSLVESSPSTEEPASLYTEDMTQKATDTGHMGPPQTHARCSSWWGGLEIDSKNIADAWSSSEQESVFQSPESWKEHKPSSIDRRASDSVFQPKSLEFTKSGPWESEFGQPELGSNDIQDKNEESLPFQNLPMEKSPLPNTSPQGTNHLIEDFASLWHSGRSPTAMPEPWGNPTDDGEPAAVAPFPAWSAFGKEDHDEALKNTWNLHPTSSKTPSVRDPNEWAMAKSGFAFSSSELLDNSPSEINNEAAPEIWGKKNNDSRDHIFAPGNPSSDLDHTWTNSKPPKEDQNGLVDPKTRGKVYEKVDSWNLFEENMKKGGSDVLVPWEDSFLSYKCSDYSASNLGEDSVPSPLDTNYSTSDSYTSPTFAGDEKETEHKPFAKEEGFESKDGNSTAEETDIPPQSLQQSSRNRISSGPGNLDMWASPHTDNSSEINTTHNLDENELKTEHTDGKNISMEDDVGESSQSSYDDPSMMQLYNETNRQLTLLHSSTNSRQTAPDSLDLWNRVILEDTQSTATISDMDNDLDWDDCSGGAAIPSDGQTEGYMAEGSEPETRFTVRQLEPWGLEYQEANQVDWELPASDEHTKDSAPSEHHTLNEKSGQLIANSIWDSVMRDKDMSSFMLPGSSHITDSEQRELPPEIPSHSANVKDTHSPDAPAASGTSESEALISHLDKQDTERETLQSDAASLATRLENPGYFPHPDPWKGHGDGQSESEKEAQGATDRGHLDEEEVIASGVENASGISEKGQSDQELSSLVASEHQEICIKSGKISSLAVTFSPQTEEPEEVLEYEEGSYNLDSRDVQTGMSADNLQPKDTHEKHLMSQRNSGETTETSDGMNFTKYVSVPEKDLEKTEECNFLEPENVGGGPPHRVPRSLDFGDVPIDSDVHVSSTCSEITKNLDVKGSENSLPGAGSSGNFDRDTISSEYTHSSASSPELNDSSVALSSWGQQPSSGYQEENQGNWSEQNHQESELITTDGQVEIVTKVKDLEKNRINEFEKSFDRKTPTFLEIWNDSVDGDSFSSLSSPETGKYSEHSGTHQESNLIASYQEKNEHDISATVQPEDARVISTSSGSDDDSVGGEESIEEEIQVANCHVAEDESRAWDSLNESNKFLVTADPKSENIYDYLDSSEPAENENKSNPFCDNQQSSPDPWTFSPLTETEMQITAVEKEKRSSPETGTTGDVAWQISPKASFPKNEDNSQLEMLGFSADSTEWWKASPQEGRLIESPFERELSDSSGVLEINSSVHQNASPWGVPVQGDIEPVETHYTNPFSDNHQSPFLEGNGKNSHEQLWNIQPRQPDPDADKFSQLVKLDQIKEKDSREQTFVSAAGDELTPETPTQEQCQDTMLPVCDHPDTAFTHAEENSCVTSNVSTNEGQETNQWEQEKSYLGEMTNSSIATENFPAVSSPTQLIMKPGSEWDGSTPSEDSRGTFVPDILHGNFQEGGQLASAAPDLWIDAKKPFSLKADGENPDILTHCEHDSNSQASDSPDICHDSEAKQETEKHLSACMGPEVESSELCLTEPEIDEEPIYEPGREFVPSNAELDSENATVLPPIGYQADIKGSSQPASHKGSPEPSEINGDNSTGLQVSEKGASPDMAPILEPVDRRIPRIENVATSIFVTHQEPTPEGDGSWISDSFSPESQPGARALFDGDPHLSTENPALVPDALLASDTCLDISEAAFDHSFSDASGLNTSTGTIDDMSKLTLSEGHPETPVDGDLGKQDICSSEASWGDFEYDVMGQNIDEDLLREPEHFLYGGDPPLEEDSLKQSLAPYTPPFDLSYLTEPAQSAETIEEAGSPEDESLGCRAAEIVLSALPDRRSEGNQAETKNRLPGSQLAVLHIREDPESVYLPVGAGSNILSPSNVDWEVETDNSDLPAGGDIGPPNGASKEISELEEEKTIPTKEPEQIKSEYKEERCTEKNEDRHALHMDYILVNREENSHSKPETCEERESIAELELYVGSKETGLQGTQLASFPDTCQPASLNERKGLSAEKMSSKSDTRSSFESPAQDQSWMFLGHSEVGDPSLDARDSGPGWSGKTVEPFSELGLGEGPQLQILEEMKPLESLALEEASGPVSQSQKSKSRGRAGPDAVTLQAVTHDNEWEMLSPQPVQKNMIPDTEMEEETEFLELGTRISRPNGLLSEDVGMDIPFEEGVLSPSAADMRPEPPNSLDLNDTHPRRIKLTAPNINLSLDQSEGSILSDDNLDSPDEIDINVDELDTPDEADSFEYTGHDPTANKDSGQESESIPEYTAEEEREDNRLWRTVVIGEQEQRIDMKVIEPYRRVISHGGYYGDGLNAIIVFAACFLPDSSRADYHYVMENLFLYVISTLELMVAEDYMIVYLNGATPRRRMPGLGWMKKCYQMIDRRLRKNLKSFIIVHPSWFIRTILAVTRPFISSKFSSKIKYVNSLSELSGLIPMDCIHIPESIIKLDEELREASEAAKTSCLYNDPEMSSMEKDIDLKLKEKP
UniProt Q9UJV8: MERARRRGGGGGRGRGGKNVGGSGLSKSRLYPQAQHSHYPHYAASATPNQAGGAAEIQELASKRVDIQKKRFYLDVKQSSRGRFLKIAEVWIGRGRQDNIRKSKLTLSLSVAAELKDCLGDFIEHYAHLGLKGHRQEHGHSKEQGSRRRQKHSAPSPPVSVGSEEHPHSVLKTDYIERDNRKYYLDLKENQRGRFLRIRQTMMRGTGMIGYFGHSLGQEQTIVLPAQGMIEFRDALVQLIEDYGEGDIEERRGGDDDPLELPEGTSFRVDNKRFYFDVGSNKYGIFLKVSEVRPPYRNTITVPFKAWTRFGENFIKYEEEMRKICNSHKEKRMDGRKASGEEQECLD
UniProt Q7Z5L2: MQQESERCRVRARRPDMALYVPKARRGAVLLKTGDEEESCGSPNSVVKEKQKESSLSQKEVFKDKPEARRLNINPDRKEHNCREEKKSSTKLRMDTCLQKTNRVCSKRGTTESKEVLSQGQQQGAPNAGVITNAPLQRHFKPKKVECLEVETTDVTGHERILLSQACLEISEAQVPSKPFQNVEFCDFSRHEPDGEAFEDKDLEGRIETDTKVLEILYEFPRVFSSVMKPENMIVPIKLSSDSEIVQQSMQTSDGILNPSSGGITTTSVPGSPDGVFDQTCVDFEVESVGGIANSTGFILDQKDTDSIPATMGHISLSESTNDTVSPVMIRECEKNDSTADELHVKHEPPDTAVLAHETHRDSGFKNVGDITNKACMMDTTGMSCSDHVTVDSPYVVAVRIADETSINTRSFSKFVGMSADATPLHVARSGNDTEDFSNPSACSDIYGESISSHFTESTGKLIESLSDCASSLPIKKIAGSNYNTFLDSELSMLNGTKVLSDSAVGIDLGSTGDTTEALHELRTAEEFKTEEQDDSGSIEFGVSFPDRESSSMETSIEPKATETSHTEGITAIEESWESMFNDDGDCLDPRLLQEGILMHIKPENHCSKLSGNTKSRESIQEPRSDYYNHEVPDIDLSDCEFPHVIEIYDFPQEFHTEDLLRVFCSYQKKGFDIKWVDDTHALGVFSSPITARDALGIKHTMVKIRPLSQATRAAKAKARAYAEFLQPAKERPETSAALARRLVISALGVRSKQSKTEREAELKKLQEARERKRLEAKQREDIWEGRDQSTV
UniProt Q96I23: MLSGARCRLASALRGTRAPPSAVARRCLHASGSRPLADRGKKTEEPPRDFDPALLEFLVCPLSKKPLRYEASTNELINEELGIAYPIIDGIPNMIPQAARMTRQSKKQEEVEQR
UniProt P15151: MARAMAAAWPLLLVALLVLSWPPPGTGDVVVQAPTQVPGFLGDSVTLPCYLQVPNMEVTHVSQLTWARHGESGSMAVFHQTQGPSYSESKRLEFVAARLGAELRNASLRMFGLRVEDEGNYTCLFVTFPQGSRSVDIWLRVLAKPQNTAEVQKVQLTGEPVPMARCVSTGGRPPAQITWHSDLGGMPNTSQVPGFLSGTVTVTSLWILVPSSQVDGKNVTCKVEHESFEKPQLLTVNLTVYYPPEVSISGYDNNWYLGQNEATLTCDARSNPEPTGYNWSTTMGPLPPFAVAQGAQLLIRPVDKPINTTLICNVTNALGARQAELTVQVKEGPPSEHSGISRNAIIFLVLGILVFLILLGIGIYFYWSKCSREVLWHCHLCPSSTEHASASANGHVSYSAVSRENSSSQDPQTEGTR
UniProt O75365, whole entry, looked up: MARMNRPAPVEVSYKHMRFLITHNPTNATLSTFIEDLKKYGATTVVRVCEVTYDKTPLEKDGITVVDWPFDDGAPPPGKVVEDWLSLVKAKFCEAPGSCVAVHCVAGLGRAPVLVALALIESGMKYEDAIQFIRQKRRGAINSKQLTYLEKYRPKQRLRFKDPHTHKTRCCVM
UniProt Q9P2W1: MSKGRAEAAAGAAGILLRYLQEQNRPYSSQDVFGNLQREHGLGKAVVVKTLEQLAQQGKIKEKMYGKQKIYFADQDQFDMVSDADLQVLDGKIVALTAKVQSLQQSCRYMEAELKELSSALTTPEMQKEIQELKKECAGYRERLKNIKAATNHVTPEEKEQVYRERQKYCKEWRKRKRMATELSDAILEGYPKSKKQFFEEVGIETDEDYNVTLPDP
UniProt P28062: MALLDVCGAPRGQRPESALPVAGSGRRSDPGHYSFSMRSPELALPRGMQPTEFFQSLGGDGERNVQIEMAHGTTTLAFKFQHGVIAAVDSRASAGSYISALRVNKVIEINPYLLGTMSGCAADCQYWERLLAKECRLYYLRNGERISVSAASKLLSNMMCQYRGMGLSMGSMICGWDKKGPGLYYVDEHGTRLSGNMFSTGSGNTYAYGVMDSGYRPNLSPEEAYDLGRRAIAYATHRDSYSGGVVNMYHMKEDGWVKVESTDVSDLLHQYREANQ
UniProt O14818: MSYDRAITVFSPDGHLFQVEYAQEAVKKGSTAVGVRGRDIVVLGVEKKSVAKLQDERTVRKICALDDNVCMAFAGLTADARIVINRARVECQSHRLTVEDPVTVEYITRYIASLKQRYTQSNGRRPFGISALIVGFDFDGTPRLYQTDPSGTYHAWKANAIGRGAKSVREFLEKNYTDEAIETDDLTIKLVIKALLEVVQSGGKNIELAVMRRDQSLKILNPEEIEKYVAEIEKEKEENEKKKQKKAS
UniProt P28065: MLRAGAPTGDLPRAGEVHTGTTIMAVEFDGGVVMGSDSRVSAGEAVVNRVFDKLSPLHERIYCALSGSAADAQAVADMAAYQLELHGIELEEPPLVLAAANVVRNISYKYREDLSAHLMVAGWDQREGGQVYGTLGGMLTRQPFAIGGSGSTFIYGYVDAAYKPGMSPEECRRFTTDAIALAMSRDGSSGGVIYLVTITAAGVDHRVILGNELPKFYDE
UniProt Q9ULZ3, whole entry, looked up: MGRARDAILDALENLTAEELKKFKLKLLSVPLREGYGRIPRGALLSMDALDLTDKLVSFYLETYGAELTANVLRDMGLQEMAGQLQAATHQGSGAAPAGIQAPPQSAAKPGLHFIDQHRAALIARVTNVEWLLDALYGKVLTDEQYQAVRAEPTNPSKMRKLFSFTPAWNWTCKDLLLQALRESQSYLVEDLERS
UniProt Q86Y79: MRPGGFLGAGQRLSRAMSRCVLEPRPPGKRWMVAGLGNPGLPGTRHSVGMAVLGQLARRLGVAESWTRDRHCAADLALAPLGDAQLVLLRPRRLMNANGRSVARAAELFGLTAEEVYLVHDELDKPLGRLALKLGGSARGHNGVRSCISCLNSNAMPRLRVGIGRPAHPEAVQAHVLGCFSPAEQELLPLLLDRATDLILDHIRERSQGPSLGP
UniProt Q9BRX8: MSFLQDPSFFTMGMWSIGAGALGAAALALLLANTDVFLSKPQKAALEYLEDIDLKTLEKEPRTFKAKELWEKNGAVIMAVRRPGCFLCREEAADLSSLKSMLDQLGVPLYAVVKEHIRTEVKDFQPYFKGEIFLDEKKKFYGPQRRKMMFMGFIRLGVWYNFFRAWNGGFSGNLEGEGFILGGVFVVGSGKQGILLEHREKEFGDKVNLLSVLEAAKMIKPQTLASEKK

[2] = compound: CC1=CC=C(C=C1)SC2=C3C=C(SC3=CN=C2)C(=O)N
Summary of the method: as §1

[3] = compound: CC1=NC(=CC=C1)C2=C(N=C(N2)C(C)(C)C)C3=CC4=NC=CN=C4C=C3
Summary of the method: as §1

[4] = compound: CCCS(=O)(=O)Nc1ccc(F)c(C(=O)c2c[nH]c3ncc(Cl)cc23)c1F
Summary of the method: as §1

[5] = compound: CCCc1cc(C)[nH]c(=O)c1CNC(=O)c1cc(-c2ccnc(N3CCN(C)CC3)c2)cc2c1cnn2C(C)C
Summary of the method: as §1

[6] = compound: CC[C@@H]1C(=O)N(C)c2cnc(Nc3ccc(C(=O)NC4CCN(C)CC4)cc3OC)nc2N1C1CCCC1
Summary of the method: as §1

volasertib = compound: CC[C@@H]1C(=O)N(C)c2cnc(Nc3ccc(C(=O)N[C@H]4CC[C@H](N5CCN(CC6CC6)CC5)CC4)cc3OC)nc2N1C(C)C [volasertib]
Summary of the method: as §1

[7] = compound: CC[C@H](C)N1C=C(C2=C(C=C(C=C21)C3=CN=C(C=C3)N4CCNCC4)C(=O)NCC5=C(C=C(NC5=O)C)C)C
Summary of the method: as §1

[8] = compound: CCn1cc(-c2ccnc3[nH]c(-c4cccc(CN(C)C)c4)cc23)c(-c2ccc(NC(=O)N(C)C)cc2)n1
Summary of the method: as §1

[9] = compound: CN1C2=C(C3=C1C(=O)N(N=C3)CC4=CC(=CC=C4)N)SC(=C2)S(=O)C
Summary of the method: as §1

[10] = compound: CN1CCC(CNc2ccc3ncc(-c4cccc(OC(F)(F)F)c4)n3n2)CC1
Summary of the method: as §1

vemurafenib = compound: CCCS(=O)(=O)Nc1ccc(F)c(C(=O)c2c[nH]c3ncc(-c4ccc(Cl)cc4)cc23)c1F [vemurafenib]
Summary of the method: as §1

[11] = compound: CN(C)CC(=O)Nc1ccc2[nH]c(=O)c3ccccc3c2c1
Summary of the method: as §1

Nexturastat A = compound: CCCCN(Cc1ccc(C(=O)NO)cc1)C(=O)Nc1ccccc1 [Nexturastat A]
Summary of the method: as §1

givinostat = compound: CCN(CC)Cc1ccc2cc(COC(=O)Nc3ccc(C(=O)NO)cc3)ccc2c1 [givinostat]
Summary of the method: as §1

epoxomicin = compound: CC[C@H](C)[C@@H](C(=O)N[C@@H]([C@@H](C)O)C(=O)N[C@@H](CC(C)C)C(=O)[C@]1(CO1)C)NC(=O)[C@H]([C@@H](C)CC)N(C)C(=O)C [epoxomicin]
Summary of the method: as §1

[12] = compound: CCn1c(C(=O)N(C2CC2)C2CC2)cc2c3c(ncn3C)c(Nc3cc(C)n(C)n3)nc21
Summary of the method: as §1

[13] = compound: CC1=C(C=C(C=C1)NC(=O)C2=CC(=CC=C2)C(C)(C)C#N)NC3=CC4=C(C=C3)N=CN(C4=O)C
Summary of the method: as §1

barasertib = compound: CCN(CCCOc1ccc2c(Nc3cc(CC(=O)Nc4cccc(F)c4)[nH]n3)ncnc2c1)CCOP(=O)(O)O [barasertib]
Summary of the method: as §1

rosiglitazone = compound: CN(CCOC1=CC=C(C=C1)C[C@H]2C(=O)NC(=O)S2)C3=CC=CC=N3 (racemic) [rosiglitazone]
Summary of the method: as §1

Measured: log2 fold change

PSIP1 (UniProt V9GYT7)
inactive: [1] -0.023 | [2] -0.06 | [3] 0.051 | [4] -0.108 | [5] 0.265 | [6] 0.196 | volasertib 0.01 | [7] -0.195 | [8] 0.128 | [9] 0.237 | [10] -0.06

PSMD8 (UniProt K7ERW6)
inactive: [3] -0.283 | vemurafenib -0.236 | [11] 0.027

PRUNE2 isoform 3 (UniProt Q8WUY3)
inactive: [1] -0.079 | [2] 0.051 | [3] 0.082 | Nexturastat A -0.035 | vemurafenib 0.103 | [4] 0.062 | [5] 0.068 | givinostat 0.038 | [6] -0.241 | volasertib -0.109 | [7] 0.107 | epoxomicin 0.097 | [12] 0.026 | [11] 0.028 | [9] -0.114

PURG (UniProt Q9UJV8)
inactive: [13] 0.015 | Nexturastat A 0.494 | [7] -0.049 | epoxomicin -0.16

R3HCC1L (UniProt Q7Z5L2)
inactive: [13] -0.023 | [2] 0.025 | vemurafenib 0.102 | [4] -0.116 | givinostat 0.258 | volasertib -0.452 | [7] 0.192 | [12] -0.18 | [8] 0.127 | [11] -0.033 | [10] -0.175

PUM1 (UniProt Q14671)
inactive: [3] -0.028 | givinostat 0.08 | [8] -0.084 | [9] 0.078 | [10] -0.026

PSD3 (UniProt Q9NYI0)
inactive: [1] -0.059 | [2] -0.01 | [3] 0.023 | vemurafenib -0.019 | [4] 0.049 | [5] 0.025 | [6] -0.019 | volasertib -0.108 | [7] 0.061 | [11] 0.004

PYURF (UniProt Q96I23)
inactive: [13] 0.175 | [2] -0.196 | [3] 0.029 | Nexturastat A 0.027 | vemurafenib -0.09 | [4] 0.057 | [5] 0.046 | givinostat -0.034 | barasertib 0.008 | [6] 0.055 | volasertib 0.166 | [7] -0.046 | epoxomicin 0.071 | [12] 0.054 | [8] 0 | [11] -0.031 | rosiglitazone 0 | [9] -0.011 | [10] 0.184

PSMA3 (UniProt H0YJ03)
inactive: [1] 0.019 | [2] 0.019 | [3] -0.194 | vemurafenib -0.145 | [4] -0.134 | [6] 0.115 | volasertib 0.076 | [11] -0.04 | [9] 0.027

PVR (UniProt P15151)
inactive: [13] 0.03 | [2] 0.001 | Nexturastat A -0.082 | vemurafenib 0.028 | [4] 0.023 | [5] -0.07 | barasertib 0.015 | [6] 0.046 | volasertib -0.029 | epoxomicin -0.016 | [8] -0.064 | [11] 0.034 | rosiglitazone -0.016 | [9] -0.05 | [10] 0.049

PUF60 isoform 2 (UniProt Q9UHX1)
inactive: [1] 0.04 | [2] 0.199 | vemurafenib 0.135 | [4] 0.35 | [5] 0.123 | barasertib 0.095 | volasertib -0.372 | [11] 0.067 | [9] -0.259

PTBP2 isoform 3 (UniProt Q9UKA9)
inactive: [13] 0.143 | [2] -0.083 | [3] -0.111 | [4] -0.147 | givinostat 0.133 | volasertib -0.112 | [12] -0.071 | [8] -0.217 | [10] 0.081

PTP4A3 (UniProt O75365)
inactive: vemurafenib 0.207 | barasertib -0.01 | [11] 0.205

PSMC3IP (UniProt Q9P2W1)
inactive: [2] 0.02 | Nexturastat A -0.087 | vemurafenib 0.153 | [4] -0.017 | [5] 0.188 | givinostat 0.037 | barasertib 0.016 | [6] -0.4 | volasertib -0.345 | [7] 0.141 | epoxomicin 0.005 | [12] -0.01 | [8] 0.043 | [11] 0.094 | rosiglitazone 0.083 | [10] -0.025

PSMD4 (UniProt Q5VWC4)
inactive: [13] -0.016 | [2] -0.096 | [3] -0.013 | Nexturastat A 0.095 | vemurafenib -0.031 | [4] -0.005 | [5] 0.005 | barasertib -0.046 | [6] -0.029 | volasertib 0.025 | [7] 0.015 | epoxomicin -0.181 | [8] 0.014 | [11] -0.038 | rosiglitazone -0.012 | [10] 0.127

PUM2 isoform 3 (UniProt Q8TB72)
inactive: [9] 0.239

PSMC1 (UniProt G3V4X1)
inactive: [2] -0.384 | [4] -0.154 | givinostat 0.095 | volasertib 0.141 | [7] -0.01 | [8] 0.108 | [10] -0.282

PYCR1 (UniProt J3QKT4)
inactive: Nexturastat A 0.39 | vemurafenib 0.006 | givinostat 0.215 | barasertib 0.061 | [6] 0.266 | epoxomicin 0.193 | [12] -0.104 | [8] -0.052 | [11] -0.022 | rosiglitazone -0.166 | [10] -0.089

PSMB8 (UniProt P28062)
inactive: [3] 0.051 | givinostat 0.049 | [7] -0.001 | [12] 0.107 | [8] -0.061 | [10] 0.02

PSMA3 (UniProt G3V4X5)
inactive: [1] -0.046 | [2] -0.117 | [3] 0.184 | vemurafenib -0.012 | [4] 0.013 | barasertib 0.103 | volasertib 0.139 | [11] 0.084

PSMA7 isoform 2 (UniProt O14818)
inactive: [13] -0.4 | [2] -0.462 | [3] -0.145 | Nexturastat A 0.135 | vemurafenib -0.401 | [4] -0.596 | [5] -0.186 | givinostat -0.014 | barasertib 0.042 | [6] 0.16 | volasertib 0.028 | [7] -0.101 | epoxomicin -0.249 | [12] -0.079 | [11] -0.346 | rosiglitazone 0.002

PSMB9 (UniProt P28065)
inactive: [13] -0.137 | [2] -0.032 | [3] -0.342 | Nexturastat A -0.233 | vemurafenib -0.08 | [4] -0.047 | givinostat -0.179 | barasertib 0.12 | [6] 0.114 | volasertib 0.008 | epoxomicin 0.049 | [8] 0.033 | [11] -0.043 | [10] 0.051

PTS (UniProt Q03393)
inactive: [2] 0.065 | [3] -0.04 | Nexturastat A -0.216 | vemurafenib 0.023 | [4] 0.035 | [5] -0.07 | givinostat -0.035 | barasertib -0.001 | [6] -0.027 | volasertib 0.098 | [7] -0.025 | epoxomicin -0.041 | [12] 0.044 | [8] 0.043 | [11] 0.033 | rosiglitazone -0.055 | [9] 0.076 | [10] -0.075

PYCARD isoform 2 (UniProt Q9ULZ3)
inactive: [1] 0.007 | [3] -0.129 | givinostat 0.097 | [12] 0.064

PTPRJ (UniProt Q12913)
inactive: [13] 0.258 | Nexturastat A -0.053 | epoxomicin 0.02

PSMC3 (UniProt E9PLG2)
inactive: [13] -0.381 | [3] -0.217 | Nexturastat A 0.04 | vemurafenib -0.157 | [5] -0.08 | barasertib 0.02 | epoxomicin -0.273 | [11] -0.238 | [9] 0.046

Fetched one by one from above, 2 records:
PSMC3 (UniProt E9PLG2)
inactive: [13] -0.381 | [3] -0.217 | Nexturastat A 0.04 | vemurafenib -0.157 | [5] -0.08 | barasertib 0.02 | epoxomicin -0.273 | [11] -0.238 | [9] 0.046

PTS (UniProt Q03393)
inactive: [2] 0.065 | [3] -0.04 | Nexturastat A -0.216 | vemurafenib 0.023 | [4] 0.035 | [5] -0.07 | givinostat -0.035 | barasertib -0.001 | [6] -0.027 | volasertib 0.098 | [7] -0.025 | epoxomicin -0.041 | [12] 0.044 | [8] 0.043 | [11] 0.033 | rosiglitazone -0.055 | [9] 0.076 | [10] -0.075

Following part:

PTGER3 isoform 2 (UniProt P43115)
inactive: [1] -0.087 | [3] -0.072 | givinostat -0.099 | [12] -0.615

PTRH1 (UniProt Q86Y79)
inactive: [1] -0.017 | [3] 0.088 | [8] -0.265 | [9] 0.124 | [10] -0.181

PSMB10 (UniProt P40306)
inactive: [13] 0.033 | [2] 0.03 | vemurafenib -0.056 | [4] -0.026 | [5] 0.077 | [6] 0.048 | volasertib 0.013 | [7] -0.023 | [11] -0.052

PRXL2A (UniProt Q9BRX8)
inactive: [13] 0.012 | [2] 0.012 | [3] 0.006 | Nexturastat A -0.045 | vemurafenib 0.167 | [4] -0.047 | [5] 0.207 | givinostat -0.108 | barasertib 0.198 | [6] 0.151 | volasertib -0.084 | epoxomicin 0.099 | [12] -0.037 | [8] 0.143 | [11] 0.332 | rosiglitazone 0.092 | [9] 0.066 | [10] 0.261

PTEN isoform 2 (UniProt P60484)
inactive: [1] -0.035 | [2] 0.13 | [3] 0.064 | [4] -0.016 | givinostat -0.086 | [6] 0.024 | volasertib 0.05 | [8] -0.016 | [10] -0.098

Source: the supplement of paper PMC10849652
